Measurements from article PMC5132261.
Results are given in words; binding and its absence hold for the method and conditions named. Binding seen in cells or lysates may run through a third protein. Some binding calls cover weakened binding; strength is not graded here.

By UniProt entry, the sequences of proteins in these tests, tags left out.
UniProt Q9JKS6: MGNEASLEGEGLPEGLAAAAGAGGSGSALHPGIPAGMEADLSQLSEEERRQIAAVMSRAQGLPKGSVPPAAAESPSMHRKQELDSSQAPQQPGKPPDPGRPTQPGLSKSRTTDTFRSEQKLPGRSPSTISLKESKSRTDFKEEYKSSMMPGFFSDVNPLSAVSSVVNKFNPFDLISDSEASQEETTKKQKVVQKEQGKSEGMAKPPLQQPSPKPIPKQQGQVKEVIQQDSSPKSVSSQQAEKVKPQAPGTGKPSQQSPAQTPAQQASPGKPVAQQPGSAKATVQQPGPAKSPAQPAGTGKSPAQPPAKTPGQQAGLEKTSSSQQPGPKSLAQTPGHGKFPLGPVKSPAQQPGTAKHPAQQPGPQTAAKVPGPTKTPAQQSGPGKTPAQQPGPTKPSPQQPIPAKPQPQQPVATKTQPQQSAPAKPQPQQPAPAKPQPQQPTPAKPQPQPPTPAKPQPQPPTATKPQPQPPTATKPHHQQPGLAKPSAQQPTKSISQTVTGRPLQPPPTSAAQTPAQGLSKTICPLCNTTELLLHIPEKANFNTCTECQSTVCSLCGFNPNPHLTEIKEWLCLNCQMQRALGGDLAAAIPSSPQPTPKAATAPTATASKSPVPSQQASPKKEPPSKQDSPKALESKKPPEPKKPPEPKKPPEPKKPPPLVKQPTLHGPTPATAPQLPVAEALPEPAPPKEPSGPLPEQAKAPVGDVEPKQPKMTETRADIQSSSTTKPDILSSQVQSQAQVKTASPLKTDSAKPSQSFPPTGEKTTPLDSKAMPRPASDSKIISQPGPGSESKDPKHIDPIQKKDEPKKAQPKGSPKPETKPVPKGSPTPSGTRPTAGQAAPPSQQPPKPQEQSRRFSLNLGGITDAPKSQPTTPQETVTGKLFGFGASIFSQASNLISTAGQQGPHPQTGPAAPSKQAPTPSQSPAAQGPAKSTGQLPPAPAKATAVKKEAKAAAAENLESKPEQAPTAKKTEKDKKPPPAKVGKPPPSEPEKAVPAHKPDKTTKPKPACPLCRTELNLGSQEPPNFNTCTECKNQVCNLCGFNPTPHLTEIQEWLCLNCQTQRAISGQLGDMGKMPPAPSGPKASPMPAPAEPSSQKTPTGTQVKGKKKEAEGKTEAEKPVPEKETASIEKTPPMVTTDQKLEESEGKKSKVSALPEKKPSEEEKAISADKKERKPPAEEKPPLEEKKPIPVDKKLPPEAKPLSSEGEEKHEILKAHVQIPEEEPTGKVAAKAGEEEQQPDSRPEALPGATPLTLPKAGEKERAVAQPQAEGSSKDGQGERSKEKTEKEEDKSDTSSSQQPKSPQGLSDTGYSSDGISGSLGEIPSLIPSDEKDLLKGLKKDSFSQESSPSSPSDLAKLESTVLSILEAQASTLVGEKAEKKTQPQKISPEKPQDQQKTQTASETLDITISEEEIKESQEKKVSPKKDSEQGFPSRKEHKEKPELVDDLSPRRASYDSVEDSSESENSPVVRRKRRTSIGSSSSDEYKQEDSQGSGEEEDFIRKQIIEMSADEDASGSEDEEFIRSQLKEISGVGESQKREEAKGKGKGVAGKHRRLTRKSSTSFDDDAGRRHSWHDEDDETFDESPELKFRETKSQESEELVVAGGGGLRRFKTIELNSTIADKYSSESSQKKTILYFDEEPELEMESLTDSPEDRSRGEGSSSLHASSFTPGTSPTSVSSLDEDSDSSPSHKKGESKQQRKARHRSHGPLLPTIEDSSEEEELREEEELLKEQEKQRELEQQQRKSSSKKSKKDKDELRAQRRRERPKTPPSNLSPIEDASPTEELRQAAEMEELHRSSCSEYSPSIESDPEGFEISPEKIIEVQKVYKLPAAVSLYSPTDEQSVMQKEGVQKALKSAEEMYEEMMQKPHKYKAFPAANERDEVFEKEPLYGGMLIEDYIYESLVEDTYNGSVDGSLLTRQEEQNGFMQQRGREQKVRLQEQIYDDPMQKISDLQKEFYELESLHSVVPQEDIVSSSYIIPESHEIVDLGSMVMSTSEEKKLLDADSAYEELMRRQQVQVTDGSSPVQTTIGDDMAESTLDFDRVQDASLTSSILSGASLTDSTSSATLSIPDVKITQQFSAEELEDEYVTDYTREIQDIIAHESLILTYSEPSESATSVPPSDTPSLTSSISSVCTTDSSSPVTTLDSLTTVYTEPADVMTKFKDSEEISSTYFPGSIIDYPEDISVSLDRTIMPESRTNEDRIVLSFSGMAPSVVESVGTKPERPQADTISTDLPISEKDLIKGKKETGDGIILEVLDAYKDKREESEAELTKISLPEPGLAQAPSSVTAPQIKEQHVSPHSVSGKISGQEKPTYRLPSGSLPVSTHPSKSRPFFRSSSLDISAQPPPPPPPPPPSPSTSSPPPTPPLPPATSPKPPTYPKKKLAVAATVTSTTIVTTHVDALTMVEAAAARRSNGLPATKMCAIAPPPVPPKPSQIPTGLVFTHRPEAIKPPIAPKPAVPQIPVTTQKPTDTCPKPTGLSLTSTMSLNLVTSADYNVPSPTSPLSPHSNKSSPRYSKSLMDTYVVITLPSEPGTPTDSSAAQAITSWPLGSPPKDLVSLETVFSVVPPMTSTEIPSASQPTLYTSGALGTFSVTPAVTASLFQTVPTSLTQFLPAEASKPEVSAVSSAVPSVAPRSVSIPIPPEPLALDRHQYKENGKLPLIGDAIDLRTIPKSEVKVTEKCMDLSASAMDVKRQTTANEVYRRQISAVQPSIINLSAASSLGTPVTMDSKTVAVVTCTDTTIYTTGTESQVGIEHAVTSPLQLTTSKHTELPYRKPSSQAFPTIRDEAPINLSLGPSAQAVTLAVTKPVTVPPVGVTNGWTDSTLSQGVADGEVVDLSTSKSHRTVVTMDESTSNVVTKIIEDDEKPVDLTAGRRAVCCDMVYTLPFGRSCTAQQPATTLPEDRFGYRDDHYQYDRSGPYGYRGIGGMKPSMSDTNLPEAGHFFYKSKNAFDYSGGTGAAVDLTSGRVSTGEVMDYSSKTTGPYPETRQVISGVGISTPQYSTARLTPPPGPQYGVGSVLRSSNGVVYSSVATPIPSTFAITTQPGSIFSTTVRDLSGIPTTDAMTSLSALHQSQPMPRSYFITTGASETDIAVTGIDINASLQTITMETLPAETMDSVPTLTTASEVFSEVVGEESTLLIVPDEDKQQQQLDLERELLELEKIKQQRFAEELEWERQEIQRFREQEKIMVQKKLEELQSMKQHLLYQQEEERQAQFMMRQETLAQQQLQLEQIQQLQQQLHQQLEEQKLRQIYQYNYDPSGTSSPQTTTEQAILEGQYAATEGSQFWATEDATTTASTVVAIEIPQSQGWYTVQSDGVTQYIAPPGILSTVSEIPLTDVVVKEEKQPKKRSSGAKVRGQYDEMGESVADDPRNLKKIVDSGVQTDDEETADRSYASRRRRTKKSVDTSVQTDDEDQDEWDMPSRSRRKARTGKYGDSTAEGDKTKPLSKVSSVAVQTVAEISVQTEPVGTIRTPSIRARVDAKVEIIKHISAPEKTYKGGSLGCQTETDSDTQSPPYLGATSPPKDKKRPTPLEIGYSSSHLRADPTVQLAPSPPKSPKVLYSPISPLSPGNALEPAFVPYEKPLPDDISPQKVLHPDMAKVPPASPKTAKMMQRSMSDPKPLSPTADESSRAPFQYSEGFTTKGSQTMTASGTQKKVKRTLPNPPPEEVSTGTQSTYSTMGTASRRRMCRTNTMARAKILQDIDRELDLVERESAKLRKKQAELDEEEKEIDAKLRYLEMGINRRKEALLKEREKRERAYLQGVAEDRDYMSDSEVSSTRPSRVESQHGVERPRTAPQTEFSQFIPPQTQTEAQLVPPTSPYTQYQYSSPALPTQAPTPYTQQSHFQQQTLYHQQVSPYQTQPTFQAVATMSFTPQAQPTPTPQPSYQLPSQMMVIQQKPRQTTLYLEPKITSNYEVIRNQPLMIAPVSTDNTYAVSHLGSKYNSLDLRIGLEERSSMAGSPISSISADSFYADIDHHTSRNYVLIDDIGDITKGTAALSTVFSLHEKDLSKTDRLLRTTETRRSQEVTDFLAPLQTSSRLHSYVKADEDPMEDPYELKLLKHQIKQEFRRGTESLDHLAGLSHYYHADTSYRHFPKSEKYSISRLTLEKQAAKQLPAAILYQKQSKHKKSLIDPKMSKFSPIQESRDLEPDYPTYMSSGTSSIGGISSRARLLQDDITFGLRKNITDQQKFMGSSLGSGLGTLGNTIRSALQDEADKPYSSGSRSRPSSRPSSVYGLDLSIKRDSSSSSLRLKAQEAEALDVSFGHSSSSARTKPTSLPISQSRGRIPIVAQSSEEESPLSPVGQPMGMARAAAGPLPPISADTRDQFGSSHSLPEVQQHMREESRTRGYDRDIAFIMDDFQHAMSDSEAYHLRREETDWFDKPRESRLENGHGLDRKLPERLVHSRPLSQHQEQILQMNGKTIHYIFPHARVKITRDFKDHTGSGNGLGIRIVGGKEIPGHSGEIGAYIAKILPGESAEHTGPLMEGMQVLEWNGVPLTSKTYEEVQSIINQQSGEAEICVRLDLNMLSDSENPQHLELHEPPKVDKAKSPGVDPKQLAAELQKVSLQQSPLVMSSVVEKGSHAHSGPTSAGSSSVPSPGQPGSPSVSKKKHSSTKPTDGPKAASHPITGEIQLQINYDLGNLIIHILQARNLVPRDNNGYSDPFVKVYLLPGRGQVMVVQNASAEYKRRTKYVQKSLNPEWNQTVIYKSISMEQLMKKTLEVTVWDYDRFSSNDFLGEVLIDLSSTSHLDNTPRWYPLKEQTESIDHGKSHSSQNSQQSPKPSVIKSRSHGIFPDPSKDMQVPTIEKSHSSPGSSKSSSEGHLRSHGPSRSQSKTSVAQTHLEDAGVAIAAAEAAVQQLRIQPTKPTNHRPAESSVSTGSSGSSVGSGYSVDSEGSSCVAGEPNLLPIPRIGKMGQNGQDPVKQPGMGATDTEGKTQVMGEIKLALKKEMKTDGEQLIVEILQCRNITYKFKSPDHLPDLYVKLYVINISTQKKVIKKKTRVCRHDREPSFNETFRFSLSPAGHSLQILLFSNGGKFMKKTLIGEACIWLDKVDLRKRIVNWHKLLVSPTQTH

Target: Piccolo (rat (endogenous in brain)) (UniProt Q9JKS6)
Test: co-IP; anti-Piccolo rabbit antibody or rabbit IgG, Protein A agarose; Triton X-100 (1%) solubilised light membrane fraction of immature (postnatal day 2-4) rat brain; 5 mM MES pH 7.0, 150 mM NaCl, 1 mM EDTA; Western blot

For Bassoon (from UniProt O88778 1-3938), the binding was “binds”.
